# Laboratory results published in the supplement of paper PMC8728848.
# This is one part of the list.
# B1: SP15308B-bot-339-22-339 (Bacteroides ovatus) (protein)
# chain: NEWEDEQYEQYVSFKAPIASGSDGVTTIYVRYKDNGKVTYQLPIIVSGSTVNSQDRDIHIAVDKDTLKTLNIERFSLYRPELWYTEMEEDKYEFPETVHIPAGSCVELLNIDFNLQDIDMLEKWVLPLTIVDDGSYAYQSHPRKNYAKALLKVVPFNNYSGSYTASSMKVYTYINGKPDTNARTTDKRTGYVVDNNSIFFYAGLINEDMDKDMRKKYKINVHFKEDGTLDMKQDDPSNEMEFELIGTPTYSSTSVMDATRPYLERRYVQIMFEYDFQDFTYGGSGTEVIPIKYRVAGSMTLLRNINTQIPDEDQQIEW
# Legend:
# Assay in all cases: glycan array binding signal (z-score within array); higher = stronger binding
# Conditions in all cases: glycan notation: IUPAC condensed, linker removed
# [1] = molecular target: Gal(b1-4)GlcNAc(b1-3)Gal(b1-4)GlcNAc(b1-3)Gal(b1-4)GlcNAc
# Procedure, shortened: (§1)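 The binding signal is a Z-score computed within each array. Data were drawn from 3228 arrays in the Consortium for Functional Glycomics database, restricted to those with a known protein sequence. Scores were averaged over arrays of the same protein sequence at different concentrations or buffers, and over linkers, and negative values can be taken as non-binding.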
# [2] = molecular target: Gal(b1-4)GlcNAc(b1-3)Gal(b1-4)GlcNAc(b1-3)Gal(b1-4)GlcNAc(b1-2)Man(a1-3)[Gal(b1-4)GlcNAc(b1-3)Gal(b1-4)GlcNAc(b1-3)Gal(b1-4)GlcNAc(b1-2)Man(a1-6)]Man(b1-4)GlcNAc(b1-4)GlcNAc
# Procedure, shortened: as §1
# [3] = molecular target: Gal(b1-4)GlcNAc(b1-3)Gal(b1-4)GlcNAc(b1-3)Gal(b1-4)GlcNAc(b1-2)Man(a1-3)[Gal(b1-4)GlcNAc(b1-3)Gal(b1-4)GlcNAc(b1-3)Gal(b1-4)GlcNAc(b1-2)Man(a1-6)]Man(b1-4)GlcNAc(b1-4)[Fuc(a1-6)]GlcNAc
# Procedure, shortened: as §1
# [4] = molecular target: Gal(b1-4)GlcNAc(b1-3)Gal(b1-4)GlcNAc(b1-3)Gal(b1-4)GlcNAc(b1-2)[Gal(b1-4)GlcNAc(b1-3)Gal(b1-4)GlcNAc(b1-3)Gal(b1-4)GlcNAc(b1-6)]Man(a1-6)[Gal(b1-4)GlcNAc(b1-3)Gal(b1-4)GlcNAc(b1-3)Gal(b1-4)GlcNAc(b1-2)Man(a1-3)]Man(b1-4)GlcNAc(b1-4)[Fuc(a1-6)]GlcNAc
# Procedure, shortened: as §1
# [5] = molecular target: Gal(b1-4)GlcNAc(b1-3)Gal(b1-4)GlcNAc(b1-3)Gal(b1-4)GlcNAc(b1-3)Gal(b1-4)GlcNAc(b1-2)Man(a1-3)[Gal(b1-4)GlcNAc(b1-3)Gal(b1-4)GlcNAc(b1-3)Gal(b1-4)GlcNAc(b1-3)Gal(b1-4)GlcNAc(b1-2)Man(a1-6)]Man(b1-4)GlcNAc(b1-4)GlcNAc
# Procedure, shortened: as §1
# [6] = molecular target: Gal(b1-4)GlcNAc(b1-3)Gal(b1-4)GlcNAc(b1-3)Gal(b1-4)GlcNAc(b1-3)Gal(b1-4)GlcNAc(b1-2)Man(a1-3)[Gal(b1-4)GlcNAc(b1-3)Gal(b1-4)GlcNAc(b1-3)Gal(b1-4)GlcNAc(b1-3)Gal(b1-4)GlcNAc(b1-2)Man(a1-6)]Man(b1-4)GlcNAc(b1-4)[Fuc(a1-6)]GlcNAc
# Procedure, shortened: as §1
# [7] = molecular target: Gal(b1-4)GlcNAc(b1-3)Gal(b1-4)GlcNAc(b1-3)Gal(b1-4)GlcNAc(b1-3)Gal(b1-4)GlcNAc(b1-2)[Gal(b1-4)GlcNAc(b1-3)Gal(b1-4)GlcNAc(b1-3)Gal(b1-4)GlcNAc(b1-3)Gal(b1-4)GlcNAc(b1-6)]Man(a1-6)[Gal(b1-4)GlcNAc(b1-3)Gal(b1-4)GlcNAc(b1-3)Gal(b1-4)GlcNAc(b1-3)Gal(b1-4)GlcNAc(b1-2)Man(a1-3)]Man(b1-4)GlcNAc(b1-4)[Fuc(a1-6)]GlcNAc
# Procedure, shortened: as §1
# [8] = molecular target: Gal(b1-4)GlcNAc(b1-3)Gal(b1-4)GlcNAc(b1-3)Gal(b1-4)GlcNAc(b1-3)Gal(b1-4)GlcNAc(b1-3)Gal(b1-4)GlcNAc(b1-2)Man(a1-3)[Gal(b1-4)GlcNAc(b1-3)Gal(b1-4)GlcNAc(b1-3)Gal(b1-4)GlcNAc(b1-3)Gal(b1-4)GlcNAc(b1-3)Gal(b1-4)GlcNAc(b1-2)Man(a1-6)]Man(b1-4)GlcNAc(b1-4)GlcNAc
# Procedure, shortened: as §1
# [9] = molecular target: Gal(b1-4)GlcNAc(b1-3)Gal(b1-4)GlcNAc(b1-3)Gal(b1-4)GlcNAc(b1-3)Gal(b1-4)GlcNAc(b1-3)Gal(b1-4)GlcNAc(b1-2)Man(a1-3)[Gal(b1-4)GlcNAc(b1-3)Gal(b1-4)GlcNAc(b1-3)Gal(b1-4)GlcNAc(b1-3)Gal(b1-4)GlcNAc(b1-3)Gal(b1-4)GlcNAc(b1-2)Man(a1-6)]Man(b1-4)GlcNAc(b1-4)[Fuc(a1-6)]GlcNAc
# Procedure, shortened: as §1
# [10] = molecular target: Gal(b1-4)GlcNAc(b1-3)Gal(b1-4)GlcNAc(b1-3)Gal(b1-4)GlcNAc(b1-3)Gal(b1-4)GlcNAc(b1-3)Gal(b1-4)GlcNAc(b1-2)[Gal(b1-4)GlcNAc(b1-3)Gal(b1-4)GlcNAc(b1-3)Gal(b1-4)GlcNAc(b1-3)Gal(b1-4)GlcNAc(b1-3)Gal(b1-4)GlcNAc(b1-6)]Man(a1-6)[Gal(b1-4)GlcNAc(b1-3)Gal(b1-4)GlcNAc(b1-3)Gal(b1-4)GlcNAc(b1-3)Gal(b1-4)GlcNAc(b1-3)Gal(b1-4)GlcNAc(b1-2)Man(a1-3)]Man(b1-4)GlcNAc(b1-4)[Fuc(a1-6)]GlcNAc
# Procedure, shortened: as §1
# [11] = molecular target: Gal(b1-4)GlcNAc(b1-3)Gal(b1-4)GlcNAc(b1-3)Gal(b1-4)GlcNAc(b1-3)Gal(b1-4)GlcNAc(b1-3)Gal(b1-4)GlcNAc(b1-3)Gal(b1-4)GlcNAc(b1-2)Man(a1-3)[Gal(b1-4)GlcNAc(b1-3)Gal(b1-4)GlcNAc(b1-3)Gal(b1-4)GlcNAc(b1-3)Gal(b1-4)GlcNAc(b1-3)Gal(b1-4)GlcNAc(b1-3)Gal(b1-4)GlcNAc(b1-2)Man(a1-6)]Man(b1-4)GlcNAc(b1-4)GlcNAc
# Procedure, shortened: as §1
# [12] = molecular target: Gal(b1-4)GlcNAc(b1-3)Gal(b1-4)GlcNAc(b1-3)GalNAc
# Procedure, shortened: as §1
# [13] = molecular target: Gal(b1-4)GlcNAc(b1-3)Gal(b1-4)GlcNAc(b1-3)[Gal(b1-4)GlcNAc(b1-3)Gal(b1-4)GlcNAc(b1-6)]GalNAc
# Procedure, shortened: as §1
# [14] = molecular target: Gal(b1-4)GlcNAc(b1-3)Gal(b1-4)GlcNAc(b1-6)[Gal(b1-3)]GalNAc
# Procedure, shortened: as §1
# [15] = molecular target: Gal(b1-4)GlcNAc(b1-3)Gal(b1-4)[Fuc(a1-3)]GlcNAc(b1-3)Gal(b1-4)[Fuc(a1-3)]GlcNAc
# Procedure, shortened: as §1
# [16] = molecular target: Gal(b1-4)GlcNAc(b1-3)GalNAc
# Procedure, shortened: as §1
# [17] = molecular target: Gal(b1-4)GlcNAc(b1-3)[Fuc(a1-3)GlcNAc(b1-6)]Gal(b1-4)Glc
# Procedure, shortened: as §1
# [18] = molecular target: Gal(b1-4)GlcNAc(b1-3)[Gal(b1-4)GlcNAc(b1-6)]Gal(b1-4)GlcNAc
# Procedure, shortened: as §1
# [19] = molecular target: Gal(b1-4)GlcNAc(b1-3)[GlcNAc(b1-6)]Gal(b1-4)GlcNAc
# Procedure, shortened: as §1
binder,measurement,setting,value
B1,glycan array binding signal (z-score),[1],0.111
same,glycan array binding signal (z-score),[2],1.37
same,glycan array binding signal (z-score),[3],0.481
same,glycan array binding signal (z-score),[4],2.24
same,glycan array binding signal (z-score),[5],0.148
same,glycan array binding signal (z-score),[6],7.12
same,glycan array binding signal (z-score),[7],0.702
same,glycan array binding signal (z-score),[8],1.84
same,glycan array binding signal (z-score),[9],0.658
same,glycan array binding signal (z-score),[10],1.18
same,glycan array binding signal (z-score),[11],6.94
same,glycan array binding signal (z-score),[12],-0.072
same,glycan array binding signal (z-score),[13],-0.044
same,glycan array binding signal (z-score),[14],-0.395
same,glycan array binding signal (z-score),[15],0.072
same,glycan array binding signal (z-score),[16],-0.478
same,glycan array binding signal (z-score),[17],-0.155
same,glycan array binding signal (z-score),[18],0.895
same,glycan array binding signal (z-score),[19],-0.399

# As a working copy, part of the list above:
binder,measurement,setting,value
B1,glycan array binding signal (z-score),[17],-0.155
same,glycan array binding signal (z-score),[18],0.895
